{"source": "patent US6713247B1", "about": "“Human CNS cell lines and methods of use therefor” (Signal Pharmaceuticials, Inc., priority 1996, dated 2004)", "key": {"clone B4": {"system": "clone B4", "test": "Immunoreactivity of clone B4 (BrdU, v-myc, MAP2a/b, GFAP, tau, NR1)", "assay_type": "cell-based, human", "source_text": "(§1) To promote further neuronal maturation the effects of additional differentiating agents on clone B4 were examined."}, "clone C10": {"system": "clone C10", "test": "Immunoreactivity of clone C10", "assay_type": "cell-based, human", "conditions": "clone C10, after differentiation"}, "clone C2": {"system": "clone C2", "test": "Immunoreactivity of clone C2", "assay_type": "cell-based, human"}, "Human CNS Line B4": {"system": "Human CNS Line B4", "test": "Effects of growth conditions on neuronal differentiation (morphology), Human CNS Line B4 (Table 3)", "assay_type": "cell-based", "conditions": "clone B4, added to tet", "source_text": "as §1"}, "[1]": {"conditions": "clone B4, tetracycline alone for about 1 week"}}, "note": "At least one structure is not confirmed: it was looked up by name or label, or the drawing left a doubt.", "data": [{"compound": "CN(C)[C@@H]1C(O)=C(C(N)=O)C(=O)[C@@]2(O)C(O)=C3C(=O)c4c(O)cccc4[C@@](C)(O)[C@H]3C[C@@H]12", "note": "[tetracycline]", "values": [{"measurement": "BrdU uptake and v-myc immunoreactivity", "setting": "clone B4; [1]", "result": "largely suppressed"}, {"measurement": "MAP2a/b labeling", "setting": "clone B4; [1]", "result": "present in almost all cells"}, {"measurement": "GFAP staining versus proliferative condition", "setting": "clone C10", "result": "decreased"}, {"measurement": "proportion of cells expressing MAP2a/b and GFAP versus proliferative condition", "setting": "clone C2; clone C2, after differentiation", "result": "did not change substantially"}, {"measurement": "BrdU uptake and v-myc expression", "setting": "clone C2; clone C2, tet alone for 1 week", "result": "virtually no cells took up BrdU or expressed v-myc"}]}, {"compound": "C=C[C@@]1(C)CC(=O)[C@]2(O)[C@@]3(C)[C@@H](O)CCC(C)(C)[C@@H]3[C@H](O)[C@H](OC(C)=O)[C@@]2(C)O1", "note": "[forskolin]", "values": [{"measurement": "effect on neuronal differentiation (morphology and immunocytochemical staining)", "setting": "Human CNS Line B4", "result": "promoted further neuronal differentiation and process outgrowth"}]}, {"compound": "CC1=C(/C=C/C(C)=C/C=C/C(C)=C/C(=O)O)C(C)(C)CCC1", "note": "[Retinoic acid, retinoic acid]", "values": [{"measurement": "effect on cell lineage (MAP2a/b and GFAP immunoreactivities)", "setting": "clone B4; clone B4", "result": "general differentiation agent"}]}]}
